The campaign covered roughly 330,000 compounds. About 610 (0.18%) were called active. This list was built around the results that the source calls inconclusive (neither active nor inactive); the mix of calls is not that of the screen. Calls come from the whole dose curve. Where the call is inconclusive, the potency comes from a doubtful curve fit.
experiment: qHTS of Yeast-based Assay for SARS-CoV PLP; note: nearly all actives have a fitted effect of over 55% in size; for activity, positive = growth rescue: 0% is about no effect; details: S. cerevisiae expressing SARS-CoV PLpro; Potency: growth rescue; activity, positive = growth rescue: at 32.9 µM (top of the series)
Potency is the fitted concentration of half-maximal effect.

Row | SMILES | Potency | activity, positive = growth rescue
1 | O=C(N/N=C/c1c(O)ccc2ccccc12)c1ccc[n+](CCO)c1 | active: 0.891 µM | –
2 | O=c1[nH]ncc(N/N=C/c2ccccc2)c1Cl | inconclusive: 3.55 µM [activator, partial curve] | –
3 | Cc1ccc(OC(C)C(=O)N(C)Cc2ccccc2)c([N+](=O)[O-])n1 (stereo not drawn) | – | inactive: -3.76%
4 | O=C(Nc1ccc(F)cc1)C(c1ccccc1)N1CCN(S(=O)(=O)c2ccccc2)CC1 (stereo not drawn) | inconclusive: 20 µM [activator, single point] | –
5 | Cc1ccc(S(C)(=O)=NS(=O)(=O)c2cccc3nsnc23)cc1 (stereo not drawn) | – | inactive: 1%
6 | COc1ccc(/C=C/C(=O)NC(=S)NNC(=O)c2cnccn2)cc1 | inconclusive: 2.51 µM [activator, full curve] | –
7 | CCOc1ccccc1Oc1coc2cc(OC)ccc2c1=O | inconclusive: 2.82 µM [activator, single point] | –
8 | C#CCOCCOCCOCCNc1nc(N2CCN(C(=O)Cn3cc(CCCN=C(N)N)nn3)CC2)nc(N2CCN(C(=O)[C@H]([C@@H](C)CC)n3cc(CCCN=C(N)N)nn3)CC2)n1 | – | inactive: 5.56%
9 | O=S(=O)(c1ccc(F)c(F)c1)N1CCN(Cc2ccc3c(c2)OCO3)CC1 | inconclusive: 11.2 µM [activator, single point] | –
10 | O=C(O)c1cccc(-n2nc(-c3ccc(Cl)c([N+](=O)[O-])c3)c3ccccc3c2=O)c1 | inconclusive: 1.58 µM [activator, partial curve] | –
11 | N#Cc1c2n(c3c(=O)n(Cc4ccccc4Cl)cnc13)CCCC2 | inconclusive: 20 µM [activator, single point] | –
12 | Cc1cccc(/C=N/NC(=O)c2cc(-c3cccnc3)nc3c2c(C)nn3-c2ccccc2)c1 | inconclusive: 10 µM [activator, single point] | –
13 | COc1ccc(NC(=O)c2ccc3ccccc3n2)cc1S(=O)(=O)Nc1ccccc1Cl | inconclusive: 2.82 µM [activator, single point] | –
14 | O=C(CCC(=O)Nc1ccccc1)N/N=C/c1ccc2c(c1)OCO2 | inconclusive: 3.98 µM [activator, single point] | –
15 | COC(=O)COc1ccc(S(=O)(=O)Nc2ccc3c(c2)OCO3)cc1 | inconclusive: 2.24 µM [activator, partial curve] | –
16 | Cc1ccc(S(=O)(=O)N2CCN(C(=O)CSCc3ccc(C(C)C)cc3)CC2)cc1 | – | inactive: -3.92%
17 | CC(C(=O)c1ccccc1)N1C(=O)c2ccccc2C1=O (stereo not drawn) | inconclusive: 3.16 µM [activator, single point] | –
18 | O=C(Nc1cccc(C(=O)N2CCOCC2)c1)c1ccc([N+](=O)[O-])cc1 | inconclusive: 0.447 µM [activator, full curve] | –
19 | COc1ccc(CCN2C(=O)CC(NNc3ccc([N+](=O)[O-])cc3)C2=O)cc1OC (stereo not drawn) | – | inactive: -0.675%
20 | O=C(c1ccccc1Cl)N1CCC(n2cccc2)CC1 | – | inactive: 0.0598%
21 | COc1cccc(NC(=O)CN2CC(c3ccccc3)CC2=O)c1 (stereo not drawn) | inconclusive: 22.4 µM [activator, single point] | –
22 | Cc1[nH]c(=S)sc1Cc1ccc(Cl)c(Cl)c1 | inconclusive: 10 µM [activator, single point] | –

Row | SMILES | Potency | activity, positive = growth rescue
23 | O=[N+]([O-])c1ccc(O)c(/C=N/Nc2nc3ccccc3[nH]2)c1 | active: 11.2 µM | –
24 | CCOC(=O)c1ccc(N2C(=O)c3n[nH]c(C)c3C2c2ccc(O)cc2)cc1 (stereo not drawn) | inconclusive: 1.78 µM [activator, partial curve] | –
25 | COCCN(C(=O)COC(=O)CCCOc1ccc(OC)cc1)c1c(N)n(Cc2ccccc2)c(=O)[nH]c1=O | – | inactive: 6.59%
26 | O=C(Nc1nc(-c2ccccn2)cs1)c1ccc(Cl)s1 | inconclusive: 2.51 µM [activator, single point] | –
27 | CCN(CC)c1ccc(/C=N/NC(=O)c2ccc3nc[nH]c3c2)c(O)c1 | active: 3.16 µM | –
28 | O=C(NCC(=O)N1CCCCCC1)c1ccc(Cl)cc1 | inconclusive: 3.98 µM [activator, single point] | –
29 | CC(Oc1ccc(Br)cc1)C(=O)N1CCc2ccccc21 (stereo not drawn) | – | inactive: 3.07%
30 | COc1ccc(Cn2c(O)c(/C=N/NC(=O)c3ccccc3O)c(=O)[nH]c2=O)cc1 | active: 10 µM | –
31 | O=C(Nc1cccc(F)c1)/C(=C\c1ccco1)NC(=O)c1ccco1 | inconclusive: 3.55 µM [activator, single point] | –
32 | COc1cccc(/C=C2\N=C(c3cncc(Br)c3)OC2=O)c1 | inconclusive: 8.91 µM [activator, partial curve] | –
33 | S=C(c1ccccc1)N1CCN(C(=S)c2ccccc2)CC1 | inconclusive: 11.2 µM [activator, partial curve] | –
34 | COCCCNC(=O)CN1C(=O)CSc2ccc(S(=O)(=O)N3CCOCC3)cc21 | inconclusive: 4.47 µM [activator, single point] | –
35 | COc1ccc(S(=O)(=O)N(CCc2ccccc2)CC(=O)O)cc1Cl | inconclusive: 3.55 µM [activator, single point] | –
36 | CCC1CCCCN1C(=O)COc1cc(=O)n(C)c2ccccc12 (stereo not drawn) | – | inactive: 8.58%
37 | CC(=O)Nc1ccc(C(=O)/C=C/c2ccco2)cc1 | – | inactive: -1.48%
38 | COc1cccc(NC(=S)NN2C(C)CCCC2C)c1 (stereo not drawn) | inconclusive: 20 µM [activator, single point] | –
39 | C#CCN1C(=O)C(O)(CC(=O)c2cccc(OC)c2)c2ccccc21 (stereo not drawn) | inconclusive: 2 µM [activator, single point] | –
40 | O=C(CCC(=O)OCC(F)(F)C(F)F)Nc1ccc(Cl)cc1 | inconclusive: 4.47 µM [activator, single point] | –
41 | COc1ccc(C(=O)Nc2c(N)nc(SCC(=O)N3CCCCCC3)[nH]c2=O)cc1OC | inconclusive: 11.2 µM [activator, partial curve] | –
42 | Cc1ccc(NC(=O)CCNS(=O)(=O)c2ccc(Br)cc2)cc1S(=O)(=O)N1CCOCC1 | inconclusive: 2.82 µM [activator, partial curve, poor fit] | –
43 | Nc1ccc(C(=O)OCC(=O)N2CCOCC2)cc1[N+](=O)[O-] | inconclusive: 20 µM [activator, single point] | –

An excerpt of these results, as a markdown table.

| Row | SMILES | Potency | activity, positive = growth rescue |
| --- | --- | --- | --- |
| 33 | S=C(c1ccccc1)N1CCN(C(=S)c2ccccc2)CC1 | inconclusive: 11.2 µM [activator, partial curve] | – |
| 34 | COCCCNC(=O)CN1C(=O)CSc2ccc(S(=O)(=O)N3CCOCC3)cc21 | inconclusive: 4.47 µM [activator, single point] | – |
| 35 | COc1ccc(S(=O)(=O)N(CCc2ccccc2)CC(=O)O)cc1Cl | inconclusive: 3.55 µM [activator, single point] | – |

From PubChem BioAssay AID485353 (National Center for Advancing Translational Sciences (NCATS), 2010)
